According to patent US20060272039A1:
These are yes or no findings as the source states them, for the method shown. In cells and extracts the contact can be indirect. Some results given as binding are weak or reduced against the parent protein; the word gives no strength. Where a sequence is shown, tags or fusion partners need not be part of it.

Chains of the proteins cited; added tags and fusions are not shown.
UniProt Q8WQG9: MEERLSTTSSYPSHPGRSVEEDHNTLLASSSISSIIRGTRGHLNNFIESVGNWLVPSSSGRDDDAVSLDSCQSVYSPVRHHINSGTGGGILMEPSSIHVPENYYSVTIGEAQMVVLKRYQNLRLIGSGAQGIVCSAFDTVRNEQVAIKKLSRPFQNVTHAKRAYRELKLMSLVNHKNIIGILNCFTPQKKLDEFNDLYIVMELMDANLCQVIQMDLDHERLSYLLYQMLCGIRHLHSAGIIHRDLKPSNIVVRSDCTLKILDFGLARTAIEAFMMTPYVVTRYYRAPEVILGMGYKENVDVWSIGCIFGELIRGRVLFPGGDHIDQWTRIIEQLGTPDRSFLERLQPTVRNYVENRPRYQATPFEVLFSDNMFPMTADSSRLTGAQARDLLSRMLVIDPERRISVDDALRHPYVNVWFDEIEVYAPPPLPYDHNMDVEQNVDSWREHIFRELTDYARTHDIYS

How the values were obtained:
[1] = molecular target: T1, Flag-tagged DAF-16 (C. elegans) (UniProt O16850); assay: co-immunoprecipitation from lysates of co-transfected COS-7 cells; IP with anti-Xpress, immunoblot with anti-Flag (legend of FIG. 20A)
T1 sequence (looked up): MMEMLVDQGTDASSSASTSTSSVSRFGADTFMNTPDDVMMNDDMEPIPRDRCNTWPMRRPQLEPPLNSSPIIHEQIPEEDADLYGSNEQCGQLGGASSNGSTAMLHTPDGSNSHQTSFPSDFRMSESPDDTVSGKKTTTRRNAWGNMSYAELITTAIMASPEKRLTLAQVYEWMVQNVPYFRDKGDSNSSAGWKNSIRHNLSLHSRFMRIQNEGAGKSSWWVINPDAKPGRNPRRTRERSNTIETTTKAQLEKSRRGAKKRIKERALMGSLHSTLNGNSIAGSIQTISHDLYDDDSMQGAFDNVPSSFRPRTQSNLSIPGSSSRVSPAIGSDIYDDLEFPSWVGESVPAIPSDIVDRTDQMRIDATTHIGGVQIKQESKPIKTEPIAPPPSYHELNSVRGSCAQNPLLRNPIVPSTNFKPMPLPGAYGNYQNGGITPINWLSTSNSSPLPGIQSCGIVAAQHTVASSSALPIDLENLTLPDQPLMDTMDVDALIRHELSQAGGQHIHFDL

[2] = molecular target: T1, Flag-tagged DAF-16 (C. elegans); assay: co-immunoprecipitation from lysates of co-transfected COS-7 cells; IP with anti-Xpress, immunoblot with anti-Flag

## Xpress-tagged JNK-1 (from UniProt Q8WQG9 1-463) (enzyme)
[1]
  binding: binds
[2]
  binding: binds
